# Laboratory results as given in PubChem BioAssay AID504648 (National Center for Advancing Translational Sciences (NCATS), 2011).
# Among all 390,000 compounds or so, about 610 (0.16%) were called active. The shares of active, inactive and inconclusive entries below differ from those in the screen. Calls follow the shape of the dose curve; as a rule, active = well fitted inhibition curve with a large enough effect; inconclusive = small, poorly fitted or top-dose-only effect, or effect the other way, or another doubt; inactive = no such curve, though single readings can be large or run the other way. Where the call is inconclusive, the potency comes from a doubtful curve fit.
# Assay: Nrf2 qHTS screen for inhibitors: counterscreen for cytotoxicity
# Conditions: A549 ARE-Fluc cells, CellTiter-Fluor viability, 18-24 h; series mostly up to 46 µM; activity change, negative = cytotoxicity: at the top concentration
# In short: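 A549 ARE-Fluc cells in 5% FBS OPTI-MEM, 5000 cells/well, rested 2 h then exposed to compounds in concentration-response for 18-24 h at 37 °C. Viability by CellTiter-Fluor fluorescence (Ex 405/Em 525) after 30 min; luciferase luminescence (BugLite, 15 min, RT) read afterwards.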
# % is scaled to controls: 0 for no effect and ±100 for the full control effect; potency is read from the fitted curve at half-maximal effect.
SMILES,Potency,"activity change, negative = cytotoxicity"
CC(C)c1oc(=O)cc2c1[C@@H](O)[C@H]1OC(=O)[C@@]3(C)CC[C@@H](O)[C@@]2(C)C13 (some centres undefined),"inconclusive: 13 µM [falling, partial curve]",–
C[N+]1=C(/C=C/Nc2ccccc2)C(C)(C)c2ccccc21,"inconclusive: 29.1 µM [falling, single point]",–
C[C@@H]1O[C@@H](O[C@@H]2C=C3CC[C@@H]4C(CC[C@]5(C)[C@@H](c6ccc(=O)oc6)CC[C@]45O)[C@@]3(C)CC2)[C@H](O)[C@H](O)[C@H]1O (some centres undefined),"inconclusive: 0.092 µM [falling, full curve]",–
Cc1cc(C)nc(SCC(=O)NC2=NN=C(c3ccc(Br)cc3)CS2)n1,"inconclusive: 35.5 µM [falling, single point]",–
O=C(c1c[nH]cc1-c1ccccc1)c1cccc2ccccc12,"inconclusive: 23.1 µM [falling, single point]",–
COc1ccc(C(=O)C2CCCN(Cc3cnc(C)s3)C2)cc1OC (centres undefined),–,inactive: -3.36%
Clc1ccc(C(Cn2ccnc2)OCc2csc3c(Cl)cccc23)c(Cl)c1 (centres undefined),"inconclusive: 29.1 µM [falling, partial curve, poor fit]",–
CCN(CCCl)c1cc(CN(C)C)cc(NC(=O)c2ccc(C(=O)Nc3cc(CN(C)C)cc(N(CC)CCCl)c3)cc2)c1,active: 13 µM,–
CCC(=O)c1cn(Cc2ccc(C#N)cc2)c2ccccc12,–,inactive: 2.71%
COC(=O)C1=C(c2ccc(-c3ccccc3)c(F)c2)C[C@@H]2CC[C@H]1N2C(=O)NCC1CC1,"inconclusive: 32.6 µM [falling, partial curve, poor fit]",–
CC[n+]1c(-c2ccccc2)c2cc(N)ccc2c2ccc(N)cc21,"inconclusive: 13 µM [falling, partial curve]",–
CSc1ccc(C(=O)C2CCCN(Cc3cc4ccccc4[nH]3)C2)cc1 (centres undefined),"inconclusive: 23.1 µM [falling, single point]",–
O=c1[nH]c(O)c(N=Nc2cc(C(F)(F)F)ccc2Cl)c(=O)[nH]1,"inconclusive: 23.1 µM [falling, single point]",–
CCOC(=O)[C@]12Cc3cc(N(C)C)ccc3[C@H]1N(Cc1ccccc1)C(=O)c1ccccc12,–,inactive: -18.1%
CN1C(=O)/C(=C/c2cccn2-c2ccc3ccccc3c2)C(=O)NC1=S,"inconclusive: 29.1 µM [falling, single point]",–
Cc1[nH]nc2ccc(-c3cncc(OC[C@@H](N)Cc4c[nH]c5ccccc45)c3)cc12,"inconclusive: 8.2 µM [falling, partial curve]",–
CC(=O)OC1CC2(O)C3CCC4CC(O)CCC4(C)C3CCC2(C)C1C1=CC(=O)OC1 (centres undefined),"inconclusive: 0.164 µM [falling, full curve]",–
Cc1cccc(OCCn2cccc2/C=C2/C(=O)NC(=O)N(Cc3ccco3)C2=O)c1,–,inactive: 1.48%
CC[C@@H](C)[C@H](C(CC(=O)N1CCCC1[C@@H](OC)[C@H](C)C(=O)N[C@H](Cc1ccccc1)c1nccs1)OC)N(C)C(=O)[C@H](NC(=O)[C@@H](C(C)C)N(C)C)C(C)C (some centres undefined),"inconclusive: 10.3 µM [falling, partial curve]",–
CCN(CC)c1ccc(N=Cc2c(O)n(CCc3ccc(OC)c(OC)c3)c(=O)[nH]c2=O)cc1,–,inactive: -10%

# For reference, two of the compounds above.
SMILES,Potency,"activity change, negative = cytotoxicity"
Cc1cc(C)nc(SCC(=O)NC2=NN=C(c3ccc(Br)cc3)CS2)n1,"inconclusive: 35.5 µM [falling, single point]",–
O=C(c1c[nH]cc1-c1ccccc1)c1cccc2ccccc12,"inconclusive: 23.1 µM [falling, single point]",–

# Remaining list, next part.

SMILES,Potency,"activity change, negative = cytotoxicity"
CCN(CC)C1=NC(=[N+](CC)CC)c2ccccc21,"inconclusive: 16.4 µM [falling, partial curve]",–
COC(=O)C1=C(c2cccc(OCc3ccccc3)c2)C[C@@H]2CC[C@H]1N2C(=O)NC1CCN(Cc2ccccc2)CC1,"inconclusive: 20.6 µM [falling, partial curve, poor fit]",–
CC(C(=O)Nc1ccc(Cl)cc1Cl)N1CC=C(c2ccccc2)CC1 (centres undefined),"inconclusive: 5.8 µM [activator, partial curve, poor fit]",–
C[C@H]1O[C@@H](OC2CC[C@]3(C=O)[C@H]4CC[C@]5(C)[C@@H](C6=CC(=O)OC6)CC[C@]5(O)[C@@H]4CC[C@]3(O)C2)CC2OC(C)(C)OC21 (some centres undefined),"inconclusive: 0.411 µM [falling, full curve]",–
O=C(Oc1c(Br)cc(Br)c2cccnc12)N1CCCCC1,"inconclusive: 14.6 µM [falling, partial curve, poor fit]",–
CCOc1ccc(-n2c(-c3cccs3)nc3ccccc3c2=O)cc1,–,inactive: -1.33%
CCN(CC)CCOC(=O)C(O)(c1ccccc1)c1ccccc1,–,inactive: -2.09%
Cn1cccc1/C=C1/C(=O)NC(=S)N(Cc2ccc(F)cc2)C1=O,"inconclusive: 29.1 µM [falling, single point]",–
Nc1ncnc2c1ccn2[C@@H]1O[C@H](CO)[C@@H](O)[C@H]1O,"inconclusive: 9.2 µM [falling, partial curve, poor fit]",–
COC(=O)C1=C(c2cccc(OCc3ccccc3)c2)C[C@@H]2CC[C@H]1N2C(=O)NCc1ccc(Cl)cc1,–,inactive: -13.1%
CCCCn1c(NS(=O)(=O)c2ccccc2)c(C(=O)OCC)c2nc3ccccc3nc21,"inconclusive: 18.4 µM [activator, partial curve]",–
O=C(c1ccccc1)N1CCC2(CC1)OCCO2,–,inactive: 2.9%
CCOC(=O)C1(CCOc2ccccc2)CCN(Cc2ccccc2OC)CC1,"inconclusive: 23.1 µM [falling, partial curve, poor fit]",–
CCn1nc(-c2cccs2)nc2c(=O)n(C)c(=O)nc1-2,active: 1.46 µM,–
Cc1cccc(-n2c(/C=C/c3cn(C)c4ccccc34)nc3ccccc3c2=O)c1,"inconclusive: 32.6 µM [falling, partial curve, poor fit]",–
CCOC(=O)C1CCCN(c2ccc([N+](=O)[O-])c3nonc23)C1 (centres undefined),active: 18.4 µM,–
COc1ccc(OC(=O)Nc2ccc([N+](=O)[O-])cc2OC)cc1,"inconclusive: 23.1 µM [falling, partial curve, poor fit]",–
CC(C)N1CCN(Cc2ccc3c(c2)OCCO3)CC1CCO (centres undefined),"inconclusive: 10.3 µM [activator, partial curve, poor fit]",–
Cc1ccc(Cn2cccc(C(=O)Nc3cc([N+](=O)[O-])ccc3C)c2=O)cc1,–,inactive: 16.6%
